Source: paper PMC8639918, “Mechanism of phosphate sensing and signaling revealed by rice SPX1-PHR2 complex structure” (Nature Communications, 2021)
Results are given in words; binding and its absence hold for the method and conditions named.

Biological target: SPX1^1–259 (C-terminally truncated fragment of rice SPX1) (rice) (UniProt Q69XJ0)
Experiment: SEC-MALS; Superdex 200 Increase 10/300 GL, buffer C (20 mM Tris/HCl pH 8.0, 200 mM NaCl, 1 mM TCEP) without InsP6, 2–3 mg/ml, 4 °C; both purified

B1: SPX1^1–259 (C-terminally truncated fragment of rice SPX1) (domain or fragment, UniProt Q69XJ0 1-259)
chain: MKFGKSLSSQIVETLPEWRDKFLSYKDLKKRLKLIGGGGGGEERQAKRARVAADGGEEEAAAAAMTPEEAGFMRLLEAELDKFNSFFVEKEEEYIIRQKELQDRVARAAGRESKEELMRVRKEIVDFHGEMVLLENYSALNYTGLVKILKKYDKRTGALIRLPFIQKVLQQPFFTTDLLYKLVKQCEAMLDQLLPSNELSVSSEDGRGDSTNEDKPSNPSSSLVNGGTIPELDEIEYMESMYMKGTVAALRSLKEIRSG
In the case of B1, the binding is reported as “no binding”.
